# In patent US20050244906A1, “Detection kit, assay plate to be used therein, detection method, evaluation method, polyclonal antibody of frog vitellogenin and process for producing the same” (priority 2002, published 2005):
# Test system: hepatocyte in primary culture of an adult male Xenopus laevis
# Format: cell-based
# Protocol: According to a method similar to (Example 2-2), primary cultured hepatocytes of an adult male Xenopus laevis were prepared, followed by culturing in a culture liquid containing one of the chemicals, and with a culture liquid after 6 days, according to the ELISA, a VTG concentration in the culture liquid was quantified.
# Furthermore, by use of the assay system, the antagonist activity of a target substance could be evaluated.
smiles,measurement,value
"CC(C)(C)CC(C)(C)c1ccc(O)cc1 [OP, octylphenol]",antagonist activity on VTG synthesis induction due to 5 nM E2,antagonistic activity was exhibited
